Results deposited as PubChem BioAssay AID652243 (Drosophila RNAi Screening Center, 2013).

Purpose: 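Fly genes required for human androgen receptor driven transcription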 (primary screen)
System: Drosophila S2R+ cells
Reagent: long dsRNA against Drosophila genes
Time to read-out: 72 h (48 h, then 24 h hormone)
Challenge: synthetic androgen R1881 at 10 nM for 24 h
Measurement: 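Firefly light from an androgen-responsive reporter and Renilla control light per well, raw and unnormalised, for each of two replicates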
Direction: firefly reporter light: higher = more light from androgen-responsive reporter; Renilla control light: higher = more constitutive control signal (cell number, transfection)
Active means: 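Hit when the log firefly-to-Renilla ratio dropped or increased by a fixed fold versus the mean of GFP or LacZ controls across duplicate plates; lowering cut given as 1.5 and as 3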
Calls: active = hit: reporter lowered or raised; inactive = no hit
In all, the deposit lists about 24,000 reagents; below is an unselected part of those with a known target gene and a result. Over the whole deposit, 246 (1%) got an active call. 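Plates not normalised; calls are printed but the firefly/Renilla ratio behind them is not deposited; fold cut for lowering reported inconsistently.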 Raw values are not corrected between plates. The numbers tell different reagents against one gene apart. A plus sign joins genes that one reagent is predicted to hit. The record does not give: the amount of reagent.

CG34367 #1 gave firefly reporter light, replicate 1 = 2.26e5; firefly reporter light, replicate 2 = 2.51e5; Renilla control light, replicate 1 = 1.95e6; Renilla control light, replicate 2 = 2.23e6; inactive. Against CG34367 #2 the deposit lists firefly reporter light, replicate 1 = 1.41e5; firefly reporter light, replicate 2 = 1.36e5; Renilla control light, replicate 1 = 1.24e6; Renilla control light, replicate 2 = 1.34e6; inactive. Against CG34367 #3, the values are firefly reporter light, replicate 1 = 3.39e5; firefly reporter light, replicate 2 = 4.53e5; Renilla control light, replicate 1 = 9.39e5; Renilla control light, replicate 2 = 9.37e5; inactive. CG15742 #1 gave firefly reporter light, replicate 1 = 65477; firefly reporter light, replicate 2 = 99992; Renilla control light, replicate 1 = 7.50e5; Renilla control light, replicate 2 = 7.87e5; inactive. After knock-down of CG15742 #2 the results were firefly reporter light, replicate 1 = 6.41e5; firefly reporter light, replicate 2 = 5.30e5; Renilla control light, replicate 1 = 1.88e6; Renilla control light, replicate 2 = 1.51e6; inactive. With knock-down of CG13042 #1 the results were firefly reporter light, replicate 1 = 3.67e5; firefly reporter light, replicate 2 = 2.90e5; Renilla control light, replicate 1 = 3.13e6; Renilla control light, replicate 2 = 2.42e6; inactive.

With knock-down of CG13042 #2, the screen gave firefly reporter light, replicate 1 = 3.99e5; firefly reporter light, replicate 2 = 2.96e5; Renilla control light, replicate 1 = 1.57e6; Renilla control light, replicate 2 = 1.59e6; inactive. Inx5 gave firefly reporter light, replicate 1 = 2.09e5; firefly reporter light, replicate 2 = 1.45e5; Renilla control light, replicate 1 = 8.03e5; Renilla control light, replicate 2 = 3.47e5; inactive. After knock-down of loh #1 the results were firefly reporter light, replicate 1 = 1.93e5; firefly reporter light, replicate 2 = 2.29e5; Renilla control light, replicate 1 = 5.29e5; Renilla control light, replicate 2 = 5.09e5; inactive. loh #2 scored firefly reporter light, replicate 1 = 3.35e5; firefly reporter light, replicate 2 = 2.76e5; Renilla control light, replicate 1 = 2.04e6; Renilla control light, replicate 2 = 1.84e6; inactive. With knock-down of Sp212 #1, the record shows firefly reporter light, replicate 1 = 4.24e5; firefly reporter light, replicate 2 = 1.13e6; Renilla control light, replicate 1 = 1.09e6; Renilla control light, replicate 2 = 1.65e6; inactive. Sp212 #2 gave firefly reporter light, replicate 1 = 4.88e5; firefly reporter light, replicate 2 = 5.29e5; Renilla control light, replicate 1 = 1.15e6; Renilla control light, replicate 2 = 1.19e6; inactive.

CG7402 scored firefly reporter light, replicate 1 = 1.89e5; firefly reporter light, replicate 2 = 1.57e5; Renilla control light, replicate 1 = 2.12e6; Renilla control light, replicate 2 = 1.67e6; inactive. With knock-down of Mnat9, the screen gave firefly reporter light, replicate 1 = 2.55e5; firefly reporter light, replicate 2 = 1.73e5; Renilla control light, replicate 1 = 1.80e6; Renilla control light, replicate 2 = 3.35e6; inactive.

Targets listed so far whose target name begins with L or l:
loh #1 — firefly reporter light, replicate 1 = 1.93e5; firefly reporter light, replicate 2 = 2.29e5; Renilla control light, replicate 1 = 5.29e5; Renilla control light, replicate 2 = 5.09e5; outcome = inactive
loh #2 — firefly reporter light, replicate 1 = 3.35e5; firefly reporter light, replicate 2 = 2.76e5; Renilla control light, replicate 1 = 2.04e6; Renilla control light, replicate 2 = 1.84e6; outcome = inactive

The list goes on:
After knock-down of CG14000 + bchs, the record shows firefly reporter light, replicate 1 = 56580; firefly reporter light, replicate 2 = 1.88e5; Renilla control light, replicate 1 = 7.95e5; Renilla control light, replicate 2 = 1.41e6; inactive. Silencing of CG16787 came out at: firefly reporter light, replicate 1 = 2.86e5; firefly reporter light, replicate 2 = 4.06e5; Renilla control light, replicate 1 = 1.62e6; Renilla control light, replicate 2 = 1.74e6; inactive. For Eo #1 the deposit lists firefly reporter light, replicate 1 = 1.77e5; firefly reporter light, replicate 2 = 1.95e5; Renilla control light, replicate 1 = 2.72e6; Renilla control light, replicate 2 = 2.60e6; inactive. For Eo #2, the entry reads firefly reporter light, replicate 1 = 3.19e5; firefly reporter light, replicate 2 = 2.92e5; Renilla control light, replicate 1 = 7.52e5; Renilla control light, replicate 2 = 8.65e5; inactive. CG30344 #1 showed firefly reporter light, replicate 1 = 4.81e5; firefly reporter light, replicate 2 = 7.50e5; Renilla control light, replicate 1 = 1.75e6; Renilla control light, replicate 2 = 2.68e6; inactive. CG30344 #2 showed firefly reporter light, replicate 1 = 3.77e5; firefly reporter light, replicate 2 = 3.01e5; Renilla control light, replicate 1 = 6.67e5; Renilla control light, replicate 2 = 5.96e5; inactive.

For CG14507 #1 the deposit lists firefly reporter light, replicate 1 = 1.39e5; firefly reporter light, replicate 2 = 1.31e5; Renilla control light, replicate 1 = 2.25e6; Renilla control light, replicate 2 = 2.28e6; inactive. CG14507 #2 scored firefly reporter light, replicate 1 = 8.80e5; firefly reporter light, replicate 2 = 3.80e5; Renilla control light, replicate 1 = 3.74e6; Renilla control light, replicate 2 = 1.63e6; inactive.
